Measured values as given in patent US20050153894A1 (Cyclacel Limited, priority 1999, published 2005).
Square brackets hold non-standard residues; d marks the D form. Phe(3-Cl) = N[C@@H](Cc1cccc(Cl)c1)C(=O)O; Phe(4-Cl) = N[C@@H](Cc1ccc(Cl)cc1)C(=O)O; Phe(4-F) = N[C@@H](Cc1ccc(F)cc1)C(=O)O; hArg = N=C(N)NCCCC[C@H](N)C(=O)O; Tic = O=C(O)[C@@H]1Cc2ccccc2CN1; 2Thi = N[C@@H](Cc1cccs1)C(=O)O; hSer = N[C@@H](CCO)C(=O)O; Nle = CCCC[C@H](N)C(=O)O; βAla = NCCC(=O)O

experiment: general procedure: Fmoc solid-phase peptide synthesis; Rink amide linker; 5-[4-(4-tolyl(chloro)methyl)phenoxy]pentanoyl aminomethylated polystyrene for some; PyBOP-, HBTU- or TBTU with HOBt and Pr2iNEt; conditions: whole synthesis, 214 nm

For “H-Ser-Asn-Pro-Pro-Lys-Pro-Leu-Lys-Lys-Leu-Arg-Phe-Asp-Ile-Glu-NH2”, the “purity (crude or final not stated)” value was >95%.

In order of falling “purity (crude or final not stated)” value:
1. H-HAKKRLIF-NH2  100%
2. H-HAKRRL[Nle]F-NH2  100%
3. H-HAKRRLLF-NH2  100%
4. H-HAKRRLVF-NH2  100%
5. H-His Ala-Lys-Hse-Arg-Leu-Ile Phe-NH2  100%
6. H-HVKRRLIF-NH2  100%
7. H-His-Ala-Lys-arg-Arg-Leu-Ile Phe-NH2  99%
8. H-Ser-Ala-Abu-Arg-Asn-Leu-Phe-Gly-NH2  99%
9. H-His-Ala-Lys-Arg-arg-Leu-Ile Phe-NH2  99%
10. H-Arg-Arg-Leu-Ile-Phe-NH2  99%
11. H-Arg-Leu-Ile-Phe-NH2  99%
12. H-AAKRRLA[Phe(4-F)]-NH2  99%
13. H-Arg-Asn-Leu-Phe-Gly-NH2  99%
14. H-HGKRRLIF-NH2  98%
15. H-HAKRRLI[Tic]-NH2  91%
16. H-Hse-Ala-Lys-Arg-Arg-Leu-Ile Phe-NH2  82%

In order of rising “final HPLC purity” value:
1. H-His-Ser-Lys-Arg-Arg-Leu-Ile Pheol  95%
2. H-His-Ala-Lys-Arg-Arg-Leu-Ile L-Pse OH  99%
3. H-His-Ala-Lys-Arg-Arg-Leu-Ile D-Psa OH  99%
4. H-His-Als-Lys-Arg-Arg-Leu-Ile Dhp OH  99%

In the case of “5,8-cyclic His-Ala-Lys-Arg-Orn-Leu-Phe-Gly”, the “final HPLC purity” value is reported as >99%.

same assay, conditions: whole synthesis, RP-HPLC, Vydac 218TP54, 214 nm

In order of falling “purity (crude or final not stated)” value:
1. H-AAKRRL[Phe(3-Cl)]F-NH2  95%
2. H-AAKRRL[2Thi]F-NH2  95%
3. H-Ala-Ala-Lys-Arg-Arg-alle-Phe-Gly-NH2  95%
4. H-AAKRRL[Phe(4-Cl)]F-NH2  95%
5. H-Ala-Ala-Lys-Arg-Arg-Hle-Phe-Gly-NH2  94%
6. H-AAKRRL[βAla][Phe(4-F)]-NH2  94%
7. H-AAKRRLFE-NH2  93%
8. H-Ala-Ala-Lys-Arg-Arg-Leu-plPhe-Gly-NH2  92%
9. H-Ala-Ala-Lys-Arg-Arg-Leu-diClPhe-Phe-NH2  92%
10. H-Ala-Ala-Lys-Arg-Arg-Leu-Ile-diClPhe-NH2  91%
11. H-Ala-Ala-Lys-Arg-Arg-Leu-TyreMe-Phe-NH2  91%
12. H-Ala-Ala-Lys-Arg-Arg-Leu-Pya-Gly-NH2  90%
13. H-AAKRKLFG-NH2  90%
14. H-Ala-Ala-Lys-Arg-Arg-Leu-Inc-Gly-NH2  90%
15. H-Ala-Ala-Lys-Arg-Arg-Leu-Bug-pFPhe-NH2  90%
16. H-Ala-Ala-Lys-Arg-Arg-Phg-Ile-pfPhe-NH2  90%
17. H-Ala-Ala-Lys-Arg-Arg-Leu-Ile-TyrMe-NH2  90%
18. H-AAKRRLI[Phe(4-Cl)]-NH2  88%
19. H-Ala-Ala-Lys-Arg-Arg-Leu-Pgh-pFPhe-NH2  88%
20. H-AAKRRLI[Phe(3-Cl)]-NH2  88%
21. H-AAKSRLI[Phe(4-F)]-NH2  87%
22. H-AAK[hSer]RLI[Phe(4-F)]-NH2  87%
23. H-AAK[hArg]RLI[Phe(4-F)]-NH2  85%
24. H-AAKRRLG[Phe(4-F)]-NH2  84%

same assay, conditions: whole synthesis, w.r.t. initial resin loading

Substance “5,8-cyclic His-Ala-Lys-Arg-Orn-Leu-Phe-Gly” has an isolated yield of 8.9%.
